# Among all 580,000 compounds or so, about 6,100 (1.1%) were called active. The shares of active, inactive and inconclusive entries below differ from those in the screen. The call rests on the fitted dose curve; in most records, active means well fitted inhibition curve with a large enough effect; inconclusive means small, poorly fitted or top-dose-only effect, or another doubt; inactive means no such curve, though single readings can be large or run the other way. Potencies beside an inconclusive call are fits to weak or partial responses and may not hold up.
# Chains of the proteins cited; added tags and fusions are not shown. Lines headed by an entry give the natural chain unless they say otherwise; changes in a name come on top.
# UniProt P18054: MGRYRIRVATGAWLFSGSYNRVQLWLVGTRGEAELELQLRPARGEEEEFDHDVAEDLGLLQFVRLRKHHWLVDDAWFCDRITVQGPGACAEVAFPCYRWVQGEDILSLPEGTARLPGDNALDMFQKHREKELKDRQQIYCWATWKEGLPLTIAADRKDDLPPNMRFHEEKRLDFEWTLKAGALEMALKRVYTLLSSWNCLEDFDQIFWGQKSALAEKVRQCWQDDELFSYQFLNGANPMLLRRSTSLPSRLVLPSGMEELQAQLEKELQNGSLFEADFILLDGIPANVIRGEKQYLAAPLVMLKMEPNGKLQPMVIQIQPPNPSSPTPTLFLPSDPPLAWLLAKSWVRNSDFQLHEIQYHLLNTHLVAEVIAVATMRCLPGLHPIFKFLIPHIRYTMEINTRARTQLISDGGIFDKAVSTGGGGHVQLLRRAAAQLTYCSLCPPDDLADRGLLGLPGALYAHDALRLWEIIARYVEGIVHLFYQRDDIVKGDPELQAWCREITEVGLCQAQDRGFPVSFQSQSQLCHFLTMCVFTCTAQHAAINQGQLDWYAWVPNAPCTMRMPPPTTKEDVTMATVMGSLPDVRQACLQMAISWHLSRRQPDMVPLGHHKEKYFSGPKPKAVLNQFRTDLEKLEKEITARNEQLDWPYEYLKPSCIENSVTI
# Molecular target: Polyunsaturated fatty acid lipoxygenase ALOX12 (Homo sapiens) (UniProt P18054)
# Assay: Primary qHTS assay for inhibitors of human arachidonate 12S-lipoxygenase (ALOX12): Round 2
# Conditions: purified 12hLO, xylenol orange hydroperoxide absorbance; activity change, negative = inhibition: at 108 µM (top of the series)
# Summary of the method: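 Hydroperoxide product was detected by ferrous iron/xylenol orange as the 573 to 405 nm absorbance ratio. Arachidonic acid at 40 uM (final) was turned over for 30 min at room temperature by 150 nM human 12hLO, pH 7.0 Hepes buffer, after 15 min compound preincubation.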
# On the % scale 0 is the no-effect control and ±100 the full control effect; potency means the concentration at half of the fitted maximal effect.
SMILES,Potency,"activity change, negative = inhibition"
Cc1cc(/C=C2\C(=O)NC(=O)N(c3cccc(F)c3)C2=O)c(C)n1-c1ccc(C(=O)O)c(Cl)c1,active: 7.94 µM,–
CCCC1(CCC)C(=O)NC(=NCc2ccccc2)NC1=O,"inconclusive: 141 µM [inhibitor, partial curve, poor fit]",–
CN(N)N=Nc1nc2c([nH]1)c(=O)n(C)c(=O)n2C,"inconclusive: 5.01 µM [inhibitor, full curve, poor fit]",–
CN1c2ccc([N+](=O)[O-])cc2CC2(C(=O)NC(=O)N(c3ccc(Br)cc3)C2=O)C1c1ccccc1 (configuration not stated),inactive,–
CN1C(=O)C(=Cc2ccc(Sc3ccccc3)o2)C(=O)N(C)C1=O,"inconclusive: 44.7 µM [inhibitor, partial curve]",–
COc1ccc2c(c1)c(C(=O)NC(C)CCC(C)C)c(C)n2C1CC1 (configuration not stated),–,inconclusive: -30.9% [inhibitor]
COc1cc(O)c(C(=O)O)c(-c2cc(O)c(O)cc2C)c1,active: 3.16 µM,–
CCOP(=O)(OCC)C(Cc1ccccc1)NC(C)=O (configuration not stated),"inconclusive: 126 µM [inhibitor, single point]",–
CC(C)(C)c1cn(C[C@H]2CC3CCN2C[C@@H]3C(=O)NCc2ccc3c(c2)OCO3)nn1 (some centres not stated),inactive,–
Cc1cccc2c1=NC(=O)/C(=C/c1c(O)[nH]c(=O)[nH]c1=O)C=2,inactive,–
Clc1ccccc1C1NCc2ccccc2-n2cccc21 (configuration not stated),"inconclusive: 39.8 µM [inhibitor, single point]",–
CN1CCC(N(C)c2nc(-c3ccc([N+](=O)[O-])cc3)nc3ccccc23)CC1,"inconclusive: 25.1 µM [inhibitor, partial curve, poor fit]",–
O=C(c1ccco1)c1cn(Cc2ccccc2Cl)c2ccccc12,inactive,–
Cc1ccc(-n2nc(C)c3c2NC(=O)CSC3c2ccsc2)cc1 (configuration not stated),"inconclusive: 0.112 µM [inhibitor, full curve, poor fit]",–
COC(=O)C1=C(c2ccc(OCc3ccccc3)cc2)C[C@@H]2CC[C@H]1N2C(=O)NCc1ccccc1C(F)(F)F,"inconclusive: 141 µM [inhibitor, single point]",–
CCCCOc1ccc(CN2CCN(CC)CC2)cc1,"inconclusive: 39.8 µM [inhibitor, partial curve, poor fit]",–
CC(C)Sc1nnc([C@@H](N)Cc2ccccc2)o1,inactive,–
CC1=NCCc2c1[nH]c1cc(O)ccc21,"inconclusive: 79.4 µM [inhibitor, partial curve, poor fit]",–
CCn1nccc1C(=O)N1[C@H]2CC[C@@H]1c1cnc(-c3ccc(F)cc3)nc1C2,inactive,–
C=CC1C[N+]2(C)CCC1CC2C(O)c1ccnc2ccccc12 (configuration not stated),"inconclusive: 50.1 µM [inhibitor, partial curve, poor fit]",–
CC1(C)C(C(=O)NCc2ccco2)C1(C)C,inactive,–

SMILES,Potency,"activity change, negative = inhibition"
CC(=O)c1ccc2c(c1)OCO2,"inconclusive: 112 µM [inhibitor, single point]",–
CCN(CC)S(=O)(=O)c1ccc(NN=C(C#N)C#N)cc1,"inconclusive: 141 µM [inhibitor, partial curve, poor fit]",–
COc1cc(OC)c([C@H]2C=C(C)[C@H]3C[C@@H]2C3(C)C)c(OC)c1,"inconclusive: 70.8 µM [inhibitor, partial curve, poor fit]",–
COc1ccc(C(=O)NC(=S)N2C[C@H]3C[C@H](C2)c2cccc(=O)n2C3)cc1OC,"inconclusive: 3.55 µM [inhibitor, full curve, poor fit]",–
C[C@@]12CCC(OS(=O)(=O)O)C[C@@H]1CCC1C2CC[C@]2(C)C(=O)CCC12 (some centres not stated),inactive,–
O=C(NCCN1CCC2(CC1)C(=O)NCN2c1ccccc1)c1ccc(Cl)cc1,"inconclusive: 39.8 µM [inhibitor, partial curve]",–
CC(C(=O)c1ccccc1)N(C)C (configuration not stated),–,inactive: -17.8% [at 22.9 µM]
COc1ccc(CN2C(=O)NC(=O)/C(=C/c3ccc([N+](=O)[O-])s3)C2=O)cc1,"inconclusive: 3.98 µM [inhibitor, full curve, poor fit]",–
CN1CCN(C(=O)Cc2c[nH]c3ncc(-c4ccc(Cl)cc4)cc23)CC1,inactive,–
COCCN1C[C@@H]2CN(C(=O)c3cnc[nH]c3=O)C[C@]2(C(=O)O)C1,inactive,–
COc1ccccc1C=C1C(=O)NC(=S)NC1=O,"inconclusive: 35.5 µM [inhibitor, partial curve, poor fit]",–
Nc1c(C(=O)Nc2ccc(Br)cc2F)sc2nc3c(cc12)N1CCC3CC1,"inconclusive: 44.7 µM [inhibitor, partial curve, poor fit]",–
Cn1nc(-c2cccs2)cc1[C@H]1CN2CC[C@H]1C[C@@H]2CNCc1ccccn1,inactive,–
COC(=O)C1=C(c2ccc3ccccc3c2)C[C@@H]2CC[C@H]1N2C(=O)NCc1ccc(C(F)(F)F)cc1,inactive,–
COc1ccc(NC(=O)OC[C@H]2C[C@@H]3CCN2C[C@@H]3c2cc(C3CCCC3)nc(-c3ccncc3)n2)cc1,"inconclusive: 44.7 µM [inhibitor, partial curve]",–
O=C(Cc1ccccc1)OC(COCc1ccccc1)CN1CCOCC1 (configuration not stated),"inconclusive: 50.1 µM [inhibitor, single point]",–
COc1ccccc1NC(=O)N(Cc1ccc2c(c1)OCO2)C1CCN(Cc2ccccc2)CC1,"inconclusive: 79.4 µM [inhibitor, partial curve, poor fit]",–
CC(O)C1C=CC=CC(=O)OC2CC3OC4C5OC5(C)CCC4(COC(=O)C4OC4(C)C(O)CO1)C2(C)C31CO1 (configuration not stated),active: 31.6 µM,–
Cc1cc(C(=O)N2[C@H]3CC[C@@H]2c2cnc(-c4ccc(F)cc4)nc2C3)nn1C,inactive,–
CC(C)CN1Cc2cc(-c3cccc(F)c3)ccc2-n2nncc2C1,"inconclusive: 100 µM [inhibitor, partial curve, poor fit]",–
CCOc1ccc(N2C(=O)NC(=O)/C(=C\c3ccc(N4CCOCC4)cc3C)C2=O)cc1,"inconclusive: 44.7 µM [inhibitor, partial curve, poor fit]",–

# Compounds listed so far that have a CF3 group:
SMILES,Potency,"activity change, negative = inhibition"
COC(=O)C1=C(c2ccc(OCc3ccccc3)cc2)C[C@@H]2CC[C@H]1N2C(=O)NCc1ccccc1C(F)(F)F,"inconclusive: 141 µM [inhibitor, single point]",–
COC(=O)C1=C(c2ccc3ccccc3c2)C[C@@H]2CC[C@H]1N2C(=O)NCc1ccc(C(F)(F)F)cc1,inactive,–

# Reference: PubChem BioAssay AID1671190 (National Center for Advancing Translational Sciences (NCATS), 2021)
